Some of the results follow. The main result of the screen is listed elsewhere. These columns were measured beside it and carry no call. Compounds called inactive in the main read-out are mostly missing here. The note in brackets gives the kind of curve behind each potency; many fits are weak.
Experiment: qHTS Assay for Lipid Storage Modulators in Drosophila S3 Cells;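 on cell number change: cells counted by Cell Tracker Red CMTPX staining in the red channel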
Conditions: BODIPY lipid droplet fluorescence, 18-24 h; for cell number change: measured here: cell count max response, cells fed with added oleic acid
Method in brief: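 Drosophila S3 cells loaded with oleic acid (400 uM, as added) and compounds at several concentrations; lipid droplets imaged by 488-nm laser-scanning cytometry, 500–530 nm intensity and object ratio to cell channel. Percent activity normalized to 20 uM Triacsin C.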

[1] = measured here: lipid fluorescence (Fed channel) AC50, cells fed with added oleic acid
[2] = measured here: cell number channel AC50, cells fed with added oleic acid

SMILES | cell number change [%] | AC50 [1] | AC50 [2]
COc1ccc(CN2CCNC(=O)C2CC(=O)N(C)Cc2nonc2C)c(F)c1 (centres undefined) | 15.2 | 2060 nM [rising, partial curve] | 
CN1CCN(S(=O)(=O)c2cccc(C(=O)Nc3sc4c(c3C(N)=O)CCCC4)c2)CC1 | -12.1 |  | 
COC(=O)c1c(-c2cccs2)csc1NC(=O)c1cccnc1 | -11.7 | 29100 nM [rising, single point] | 
O=C(COC(=O)CN1C(=O)C2CCCCC2C1=O)Nc1c(Cl)cccc1Cl (centres undefined) | -44.1 | 4110 nM [falling, full curve] | 2590 nM [falling, partial curve]
CCN(CC)CCOC(=O)c1ccc(N/C=C(/C#N)c2nc(-c3cccc(OC)c3)cs2)cc1 | -22.4 | 16400 nM [falling, partial curve] | 
CC1=C(C(=O)OC2CCCC(C)C2)C(c2ccccc2)NC(=O)N1 (centres undefined) | -25.9 | 164 nM [falling, full curve] | 
COC(=O)c1sc2nc(N)c(C#N)cc2c1N | 27.1 | 4110 nM [rising, partial curve] | 
COc1ccc(C(=O)N/N=C/C(=O)c2ccccc2)cc1 | -12.4 |  | 
N#CC1(c2ccccc2)CCN(S(=O)(=O)c2ccc(OC(F)(F)F)cc2)CC1 | 15.2 | 6510 nM [falling, single point] | 
O=C(NC1CCN(C(=S)Nc2ccc(Cl)cc2)CC1)C1CCCCC1 | -2.86 |  | 731 nM [rising, partial curve, poor fit]
CCOC(=O)C1CCN(c2cc3c(cc2NC(=O)c2cc(OC)ccc2Br)n(C)c(=O)n3C)CC1 |  | 326 nM [rising, partial curve, poor fit] | 
COc1cccc(-c2nc3ccc([N+](=O)[O-])cc3o2)c1 | -4.52 | 4110 nM [falling, full curve, poor fit] | 1640 nM [falling, partial curve, poor fit]
Cc1c(C)c2ccc(OC(C)C(=O)NCCCN3CCOCC3)c(C)c2oc1=O (centres undefined) | 26.6 | 29100 nM [rising, single point] | 
Cc1cc(Nc2ccc3c(c2)OCCO3)c2ccccc2n1 | -4.3 | 731 nM [rising, full curve] | 
CCCc1nc2ccccc2c2nc(N)nn12 | -2.43 | 2590 nM [rising, full curve] | 
N#CCCN(C(=O)CSc1ccc2c(c1)OCCO2)c1ccc(F)cc1 | -0.809 | 1030 nM [falling, full curve] | 
O=C(O)CN1C(=O)c2ccc(Oc3cccc4c3C(=O)N(CC(=O)O)C4=O)cc2C1=O | -14.3 | 731 nM [falling, full curve, poor fit] | 
O=C(O)c1cccc2c1C(=O)c1cc(Br)ccc1S2(=O)=O | -2.52 |  | 
CCN(CC)CCCN(C(=O)c1ccco1)c1nc(-c2ccc(Cl)cc2)cs1 | -12.4 | 20600 nM [falling, single point] | 
COc1ccc(C(=O)COC(=O)c2nn(C)cc2Cl)cc1 | 1.71 | 2310 nM [rising, full curve, poor fit] | 

SMILES | cell number change [%] | AC50 [1] | AC50 [2]
CCC(C)Sc1nc2ccccc2n1CC(=O)O (centres undefined) | -69.3 |  | 16400 nM [falling, single point]
CCC(=O)Nc1nc2nc(C)cc(=O)n2[nH]1 | -90.8 |  | 1640 nM [falling, full curve]
O=C(COC(=O)Cc1ccc(F)cc1)NCCc1ccccc1 | -2.24 | 2910 nM [rising, single point] | 
COc1ccc(C(CNC(=O)c2cccc(S(=O)(=O)Nc3ccccc3OC)c2)N2CCCC2)cc1 (centres undefined) | 93 |  | 18400 nM [rising, single point]
CCn1c(O)c(/C=C2\C=NN=C2c2ccc(C)cc2)sc1=S | -3.33 | 130 nM [falling, full curve, poor fit] | 92 nM [falling, full curve, poor fit]
O=C(Nc1cccc(C(F)(F)F)c1)c1cccnc1NCCc1ccccc1 | -18.9 |  | 
O=C(Cc1cn(Cc2cccc(Cl)c2)c2ccccc12)N1CCCC1 | -0.996 | 259 nM [rising, full curve, poor fit] | 
COCC1CCCCN1C(=O)c1ccc(OC2CCN(CCc3ccccc3)CC2)cc1 (centres undefined) | -8.56 | 1160 nM [falling, full curve, poor fit] | 
COc1ccc(CNC(=O)[C@@H](NC(=O)C2CCN(C(=O)[C@@H]3CCCN3C(=O)OC(C)(C)C)CC2)C(C)C)cc1 |  | 6510 nM [rising, single point] | 
O=C(c1cc(-c2ccc(Cl)cc2)on1)N1CCCCCC1 | 30.9 | 6510 nM [rising, single point] | 
O=C(N/C=N/OCc1ccc(Cl)cc1Cl)NOCc1c(Cl)cccc1Cl | -64.9 | 29100 nM [falling, single point] | 29100 nM [falling, single point]
CC(C)(C)N(Cc1cc2ccccc2[nH]c1=O)C(=O)c1cccc([N+](=O)[O-])c1 | 19.6 |  | 
O=C(c1csc2c1CCCC2)N1CCN(c2ccccc2)CC1 | 1.46 |  | 
O=[N+]([O-])c1cc2c(cc1CN1CCN(c3ccccc3F)CC1)OCO2 | 30.5 |  | 517 nM [rising, full curve, poor fit]
NC(=O)c1ccc(N2CCNC(=O)C2)c([N+](=O)[O-])c1 | -19 | 206 nM [rising, single point] | 
CC(C)[N+](C)(C)CC#CC(O)(c1ccccc1)c1ccccc1 | -14 | 6510 nM [falling, single point] | 
CCCCN(C)CCNC(=O)Cn1c(=O)sc2ccccc21 | 11.6 | 5.17 nM [falling, full curve, poor fit] | 
CCc1cc2c(=O)c(-c3nc4ccccc4n3C)coc2c(CN2CCCCC2)c1O | 19.4 | 29100 nM [rising, single point] | 
CN(C)CC(C)(C)CNS(=O)(=O)c1ccc(OC(F)(F)F)cc1 | -12.1 | 6510 nM [falling, partial curve, poor fit] | 

2 successive compounds out of the list so far, for reference:
SMILES | cell number change [%] | AC50 [1] | AC50 [2]
COc1ccc(C(=O)N/N=C/C(=O)c2ccccc2)cc1 | -12.4 |  | 
N#CC1(c2ccccc2)CCN(S(=O)(=O)c2ccc(OC(F)(F)F)cc2)CC1 | 15.2 | 6510 nM [falling, single point] | 

Reference: PubChem BioAssay AID2685 (National Center for Advancing Translational Sciences (NCATS), 2010)
